Experimental data published in article PMC3203117, “The Bile Acid Receptor GPBAR-1 (TGR5) Modulates Integrity of Intestinal Barrier and Immune Response to Experimental Colitis” (PLoS ONE, 2011).

Sequences of proteins named here, by UniProt entry; tags and fusion partners are left off. A change or cut given only in a name is not applied to a line headed by its entry.
UniProt Q80SS6: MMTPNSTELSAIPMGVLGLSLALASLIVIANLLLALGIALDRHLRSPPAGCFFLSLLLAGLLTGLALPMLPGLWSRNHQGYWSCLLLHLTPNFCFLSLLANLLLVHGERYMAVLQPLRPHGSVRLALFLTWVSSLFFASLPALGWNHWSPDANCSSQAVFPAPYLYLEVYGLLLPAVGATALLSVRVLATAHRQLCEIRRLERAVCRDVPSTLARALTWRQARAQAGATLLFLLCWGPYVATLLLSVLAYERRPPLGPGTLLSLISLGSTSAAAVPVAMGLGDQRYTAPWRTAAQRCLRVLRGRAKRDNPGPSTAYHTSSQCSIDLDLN

Molecular target: T1, GP-BAR1 (TGR5) (Mus musculus, UniProt Q80SS6)
T1 construct: gene Gpbar1
Conditions: agonist; native receptor; same compound tested at 10 µM in spleen monocytes of wild type and GP-BAR1-null mice as control

Q: With O=C(O)c1cn(C2CC2)c2cc(N3CCNCC3)c(F)cc2c1=O [compound 2, ciprofloxacin] as the molecule, how does the EC50 read?
A: ~8 µM
